No constants are given. Whether binding was seen depends on the method and setting. In cells and extracts the contact can be indirect. For some assays here: Binding calls can cover weak binding; strength is not graded here. Sequences can lack the tags named with a protein.

For assay [1], the target named is MBP-PPM-1.D-10xHIS (C. elegans). As to the kind of experiment: pull-down.
The target in assay [2] is 10xHIS-MBP-3C-NRDE2ΔN (human). As to the kind of experiment: pull-down.

B1: GST-CHK-2-3xFLAG (enzyme, UniProt Q9U1Y5 1-476)
chain: MVRGTKRRRSSAEKPIVVVPVTRDDTMPVDEDLVVGESQCAASKPFAKLVGVRRGISSIDLADDHFVCGRGSDDAPTNFNFSQVAKDVGLYRFISKIQFSIDRDTETRRIYLHDHSRNGTLVNQEMIGKGLSRELMNGDLISIGIPALIIFVYESADADHHPEELTKKYHVTSHSLGKGGFGKVLLGYKKSDRSVVAIKQLNTQFSTRCSRAIAKTRDIRNEVEVMKKLSHPNIVAIYDWITVAKYSYMVIEYVGGGEFFSKVVDSKYNRMGLGESLGKYFAFQLIDAILYLHSVGICHRDIKPENILCSDKAERCILKLTDFGMAKNSVNRMKTRCGTPSYNAPEIVANEGVEYTPKVDIWSLGCVLFITFSGYPPFSEEYTDMTMDEQVLTGRLIFHAQWRRITVETQNMIKWMLTVEPSNRPSAVELMSTQWMKCADCRTAKQDILKSIKPISAAAPAALQTTQAGPVKKAKM
For the molecule B1, the binding entry is “binds” in assay [1] and “no binding” in assay [2].
